PubChem BioAssay AID493246 | Drosophila RNAi Screening Center – 2011

Screen: 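Identify essential fly genes by loss of cell viability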 (primary screen)
Cell system: Drosophila Kc and S2R+ cells
Reagents: long dsRNA against Drosophila genes
Measured: 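Cell number per well after knock-down, printed as raw plate values; calls were based on per-plate z-scores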
Scale: Kc cell number and S2R+ cell number: higher = more cells remaining
Active means: 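Counted as a hit if cell number falls by a z-score of at least 3 within its plate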
In all, the deposit lists about 21,000 reagents; this is a random part of those that have a named target and a result. Of all reagents, 429 (2%) were called active. 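Values are raw and not normalised between plates; calls rest on per-plate z-scores that were not deposited.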 Names joined by + are all predicted targets of the reagent. Not stated in the record: the amount of reagent, the time to read-out.

| Kc cell number, rep 1 | Kc cell number, rep 2 | S2R+ cell number, rep 1 | S2R+ cell number, rep 2 | Call | target | DRSC id |
| --- | --- | --- | --- | --- | --- | --- |
| 1.49e6 | 1.56e6 | 1.30e6 | 1.35e6 | inactive | knrl (GeneID 40285) | DRSC11892 |
| 1.42e6 | 1.55e6 | 1.24e6 | 1.35e6 | inactive | TfIIFbeta (GeneID 41290) | DRSC16884 |
| 5.38e5 | – | 9.35e5 | – | inactive | Capa (GeneID 43541) | DRSC15058 |
| 1.68e6 | 1.75e6 | 1.34e6 | 1.51e6 | inactive | hpRNA:CR18854 (GeneID 10178800) | DRSC02702 |
| 1.39e6 | 1.22e6 | 8.21e5 | 1.06e6 | inactive | Larp4B (GeneID 38399) | DRSC08192 |
| 1.34e6 | 1.44e6 | 1.19e6 | 1.30e6 | inactive | CG7166 (GeneID 40401) | DRSC11809 |
| 1.29e6 | 1.40e6 | 9.71e5 | 9.88e5 | inactive | CG10077 (GeneID 38756) | DRSC09691 |
| 1.38e6 | 1.40e6 | 9.73e5 | 1.15e6 | inactive | CG42496 + Ppcdc | DRSC03886 |
| 1.51e6 | 1.60e6 | 9.58e5 | 9.39e5 | inactive | Nt5c (GeneID 35984) | DRSC06711 |
| 1.39e6 | 1.40e6 | 1.23e6 | 1.24e6 | inactive | VhaM9.7-c (GeneID 38503) | DRSC08204 |
| 1.74e6 | 1.77e6 | 1.35e6 | 1.52e6 | inactive | CG1663 (GeneID 36012) | DRSC06613 |
| 1.44e6 | 1.56e6 | 1.04e6 | 1.27e6 | inactive | CG45263 (GeneID 50003) | DRSC12682 |
| 1.53e6 | 1.63e6 | 1.25e6 | 1.38e6 | inactive | CG45263 (GeneID 50003) | DRSC14360 |
| 1.45e6 | 1.51e6 | 1.32e6 | 1.41e6 | inactive | CG45263 (GeneID 50003) | DRSC14361 |
| 1.55e6 | 1.65e6 | 1.22e6 | 1.33e6 | inactive | CG45263 (GeneID 50003) | DRSC14363 |
| 1.64e6 | 1.79e6 | 1.35e6 | 1.46e6 | inactive | CG6865 (GeneID 40050) | DRSC10732 |
| 1.59e6 | 1.59e6 | 9.61e5 | 1.05e6 | inactive | GILT3 (GeneID 42787) | DRSC14672 |
| 1.55e6 | 1.54e6 | 1.08e6 | 1.16e6 | inactive | Cp7Fa (GeneID 3885650) | DRSC18032 |
| 1.42e6 | 1.45e6 | 9.58e5 | 1.07e6 | inactive | Cp7Fa (GeneID 3885650) | DRSC18033 |
| 1.35e6 | 1.42e6 | 1.24e6 | 1.27e6 | inactive | Gk1 (GeneID 43913) | DRSC08533 |
| 1.46e6 | 1.31e6 | 1.01e6 | 1.25e6 | inactive | Gk1 (GeneID 43913) | DRSC08534 |
| 5.72e5 | – | 9.44e5 | – | inactive | CG2540 (GeneID 32216) | DRSC19856 |
| 1.34e6 | 1.31e6 | 1.09e6 | 9.24e5 | inactive | CatB (GeneID 34198) | DRSC03194 |
| 1.49e6 | 1.60e6 | 1.02e6 | 1.12e6 | inactive | Lis-1 (GeneID 36791) | DRSC07459 |
| 1.51e6 | 1.60e6 | 1.13e6 | 1.25e6 | inactive | CG15126 (GeneID 50202) | DRSC06548 |
| 1.24e6 | 1.36e6 | 1.19e6 | 1.27e6 | inactive | Vps60 (GeneID 39964) | DRSC10610 |
| 1.63e6 | 1.46e6 | 1.15e6 | 1.18e6 | inactive | Cpr11A (GeneID 32198) | DRSC19861 |
| 1.46e6 | 1.51e6 | 1.08e6 | 1.15e6 | inactive | CG10073 (GeneID 37225) | DRSC05961 |
| 5.49e5 | – | 8.57e5 | – | inactive | VhaAC39-1 (GeneID 31342) | DRSC18242 |
| 1.76e6 | 1.81e6 | 1.06e6 | 1.16e6 | inactive | CG34129 (GeneID 43181) | DRSC15960 |
| 1.32e6 | 1.33e6 | 1.08e6 | 1.18e6 | inactive | CG4983 (GeneID 34585) | DRSC02799 |

Records above whose target name begins with V or v:
| Kc cell number, rep 1 | Kc cell number, rep 2 | S2R+ cell number, rep 1 | S2R+ cell number, rep 2 | Call | target | DRSC id |
| --- | --- | --- | --- | --- | --- | --- |
| 1.39e6 | 1.40e6 | 1.23e6 | 1.24e6 | inactive | VhaM9.7-c (GeneID 38503) | DRSC08204 |
| 1.24e6 | 1.36e6 | 1.19e6 | 1.27e6 | inactive | Vps60 (GeneID 39964) | DRSC10610 |
| 5.49e5 | – | 8.57e5 | – | inactive | VhaAC39-1 (GeneID 31342) | DRSC18242 |

Additional entries follow:
| Kc cell number, rep 1 | Kc cell number, rep 2 | S2R+ cell number, rep 1 | S2R+ cell number, rep 2 | Call | target | DRSC id |
| --- | --- | --- | --- | --- | --- | --- |
| 1.46e6 | 1.43e6 | 1.01e6 | 1.11e6 | inactive | CG1986 (GeneID 31925) | DRSC18197 |
| 1.19e6 | 1.28e6 | 1.16e6 | 1.29e6 | inactive | CG31495 (GeneID 261626) | DRSC16762 |
| 1.58e6 | 1.58e6 | 1.23e6 | 1.34e6 | inactive | Polr3E (GeneID 40325) | DRSC11880 |
| 1.55e6 | 1.59e6 | 1.15e6 | 1.25e6 | inactive | CG9525 (GeneID 34217) | DRSC03249 |
| 1.60e6 | 1.58e6 | 1.40e6 | 1.47e6 | inactive | CG42374 + Mettl5 | DRSC11085 |
| 5.16e5 | – | 8.09e5 | – | inactive | Tl (GeneID 43222) | DRSC16885 |
| 1.55e6 | 1.62e6 | 1.37e6 | 1.45e6 | inactive | CG13337 (GeneID 36518) | DRSC06371 |
| 1.31e6 | 1.41e6 | 1.23e6 | 1.20e6 | inactive | CG5194 (GeneID 39037) | DRSC10492 |
| 1.19e6 | 1.48e6 | 1.31e6 | 1.40e6 | inactive | CG13733 (GeneID 39951) | DRSC10061 |
| 1.41e6 | 1.47e6 | 8.32e5 | 9.76e5 | inactive | CG30389 (GeneID 37410) | DRSC04077 |
| 1.49e6 | 1.51e6 | 1.21e6 | 2.72e5 | inactive | CG30389 (GeneID 37410) | DRSC04452 |
| 2.50e5 | 2.75e5 | 4.17e5 | 5.50e5 | active | CG32606 (retired record) (GeneID 318111) | DRSC19001 |
| 1.54e6 | 1.52e6 | 1.06e6 | 1.12e6 | inactive | CG32606 (retired record) (GeneID 318111) | DRSC19371 |
| 1.50e6 | 1.38e6 | 1.01e6 | 1.13e6 | inactive | CG32606 (retired record) (GeneID 318111) | DRSC19372 |
| 1.54e6 | 1.52e6 | 9.94e5 | 1.09e6 | inactive | CG32606 (retired record) (GeneID 318111) | DRSC19373 |
| 6.16e5 | – | 9.31e5 | – | inactive | shi (GeneID 45928) | DRSC20373 |
| 1.62e6 | 1.63e6 | 1.18e6 | 1.32e6 | inactive | CG14275 (GeneID 34144) | DRSC02379 |
| 1.31e6 | 1.40e6 | 1.13e6 | 1.27e6 | inactive | Aps (GeneID 39226) | DRSC10629 |
| 1.66e6 | 1.88e6 | 1.14e6 | 1.34e6 | inactive | CG31268 (GeneID 318652) | DRSC13203 |
| 1.51e6 | 1.46e6 | 9.91e5 | 1.11e6 | inactive | Ptpmeg2 (GeneID 31907) | DRSC18277 |
| 1.49e6 | 1.48e6 | 9.51e5 | 1.08e6 | inactive | Ptpmeg2 (GeneID 31907) | DRSC18278 |
| 1.38e6 | 1.47e6 | 1.09e6 | 9.08e5 | inactive | Ack-like (GeneID 36442) | DRSC07500 |
| 1.74e6 | 1.82e6 | 1.28e6 | 1.36e6 | inactive | CG5608 (GeneID 41543) | DRSC15841 |
| 1.32e6 | 1.38e6 | 1.27e6 | 1.32e6 | inactive | SH3PX1 (GeneID 39136) | DRSC11139 |
| 1.48e6 | 1.49e6 | 1.23e6 | 1.42e6 | inactive | Nplp3 (GeneID 59235) | DRSC09944 |
| 1.58e6 | 1.76e6 | 1.16e6 | 1.15e6 | inactive | CG5515 (GeneID 42875) | DRSC15825 |
| 1.55e6 | 1.67e6 | 1.32e6 | 1.47e6 | inactive | CG17855 (GeneID 34269) | DRSC02638 |
| 6.23e5 | – | 9.65e5 | – | inactive | Sxl + CG14425 (retired record) | DRSC18721 |
| 1.56e6 | 1.54e6 | 1.06e6 | 1.19e6 | inactive | Sxl + CG14425 (retired record) | DRSC18722 |
